Reference: PubChem BioAssay AID485314 (National Center for Advancing Translational Sciences (NCATS), 2010)
Hit rate of the full screen: of about 340,000 compounds, about 4,500 (1.3%) were called active. Inconclusive means that the source gave no clear call. Such entries were picked first, then a sample of the others. Calls follow the shape of the dose curve; as a rule, active = well fitted inhibition curve with a large enough effect; inconclusive = small, poorly fitted or top-dose-only effect, or another doubt; inactive = no such curve, though single readings can be large or run the other way. Where the call is inconclusive, the potency comes from a doubtful curve fit.
% is scaled to controls: 0 for no effect and ±100 for the full control effect; potency is read from the fitted curve at half-maximal effect.

These molecules were tested against DNA polymerase beta (Homo sapiens) (UniProt P06746) (assay: qHTS Assay for Inhibitors of DNA Polymerase Beta). Conditions: Pol beta primer extension/strand displacement, fluorescence kinetic; activity change, negative = inhibition: at 114 µM (top of the series).
Outline: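 Curves were derived by four-parameter Hill fits of normalized qHTS data. The kinetic fluorescent primer-extension read was taken at 0 and 10 min after 50 nM substrate, following a 15 min room-temperature preincubation of 10 nM enzyme with compounds.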
For O=C(Nc1cc(Cl)cc(Cl)c1)c1coc(=O)c(Br)c1, the Potency was active: 28.2 µM. For Cc1cccn2c(=O)c(/C=C(\C#N)C(=O)NCc3ccccc3)c(N3CCC(C(N)=O)CC3)nc12, the Potency was inconclusive: 0.794 µM [inhibitor, full curve, poor fit]. In the case of CCOC(=O)c1nn2c(C(F)(F)F)cc(-c3ccc(OC)cc3)nc2c1Br, the Potency is reported as inconclusive: 8.91 µM [inhibitor, single point]. With COc1ccc(/C=N/NC(=O)c2ccn[nH]2)cc1COc1ccc(Cl)cc1Cl the Potency was “inactive”. With CCN(CC)c1ccc(C(=O)N/N=C(\C)c2ccc(O)cc2)cc1 the Potency was inconclusive: 7.08 µM [inhibitor, full curve, poor fit]. For CCCSc1nc(NCc2ccco2)c2c3c(sc2n1)COC(C)(C)C3, the Potency was inconclusive: 2.51 µM [inhibitor, full curve, poor fit]. For COc1cc(OC)c(NS(=O)(=O)c2cc(Br)cnc2N)cc1Cl, the Potency was inconclusive: 3.16 µM [inhibitor, single point]. In the case of COc1ccc(Cn2c(SCc3cc(C)ccc3C)nc3cc(OC)c(OC)cc3c2=N)cc1, the Potency is reported as inconclusive: 25.1 µM [inhibitor, full curve, poor fit]. For O=C(Nc1ccc(-c2nc3ccccc3o2)c(O)c1)c1cc(-n2cnnc2)ccc1Cl, the Potency was active: 35.5 µM. For CCc1cccc(CC)c1NC(=O)C(Cc1ccccc1)NS(=O)(=O)c1cccc2nsnc12 (centres undefined), the Potency was “inactive”. With O=C(Nc1nccs1)c1ccc(-c2ccc(Cl)cc2Cl)o1 the Potency was inconclusive: 89.1 µM [inhibitor, single point]. With Cc1ccc(-c2nc(=S)c3c(n2Cc2ccco2)CCCC3)cc1 the Potency was inconclusive: 0.501 µM [inhibitor, partial curve, poor fit]. With CC(NC(=O)c1cc(Br)ccc1Br)c1ccccc1 (centres undefined) the Potency was inconclusive: 0.891 µM [inhibitor, full curve, poor fit]. For Cc1ccc(CC(=O)Nc2ccc3c(c2)N(C)C(=O)c2ccccc2S3)cc1, the Potency was inconclusive: 17.8 µM [inhibitor, single point]. For COCCn1c(C)cc(C(=O)COc2ccc(C)nc2[N+](=O)[O-])c1C, the Potency was inconclusive: 25.1 µM [inhibitor, full curve, poor fit]. With CN(/C=C/C(=C/C=[N+](C)c1ccccc1)OCCCS(=O)(=O)[O-])c1ccccc1 the Potency was active: 28.2 µM. With N#Cc1nc(COc2cccc(Cl)c2)oc1NCCc1ccccc1 the Potency was inconclusive: 8.91 µM [inhibitor, full curve, poor fit]. With Cc1ccc(N(C(=O)c2csnn2)C(C(=O)NC(C)(C)C)c2ccccn2)cc1 (centres undefined) the Potency was inconclusive: 89.1 µM [inhibitor, single point]. For CCOc1ccc(N(CC(=O)N2CCN(Cc3ccccc3)CC2)S(C)(=O)=O)cc1, the Potency was inconclusive: 22.4 µM [inhibitor, partial curve]. O=C(CCS(=O)(=O)c1nc(-c2cccs2)cc(C(F)(F)F)n1)Nc1cc(Br)ccc1O was tested, and the Potency was “inactive”. In the case of CC1=C(C(N)=O)C(c2ccccc2[N+](=O)[O-])n2ncnc2N1 (centres undefined), the Potency is reported as inconclusive: 89.1 µM [inhibitor, single point]. In the case of Cc1[nH]n(-c2ncc(-c3ccc(Cl)cc3)s2)c(=O)c1C(c1ccc(Cl)cc1)C(C#N)C#N (centres undefined), the Potency is reported as active: 17.8 µM. For NC(=O)c1c(NC(=O)C2CC=CCC2C(=O)O)sc2c1CCCCC2 (centres undefined), the Potency was active: 20 µM. CC1(C)N([O-])C2=C(CCCC2)[N+]1=O was tested, and the Potency was active: 25.1 µM. For CCCCCCNC(=O)N[C@@H](C(=O)NCCC[C@H]1CN2C(=NC[C@@H]2Cc2ccccc2)N1CCc1cccc(OC)c1)C(C)C, the Potency was “inactive”. Cc1cc(C(=O)Nc2ccc(N3CCCC3)c(Cl)c2)ccc1[N+](=O)[O-] was tested, and the Potency was “inactive”. With CC(C)N(O)C(=O)NC(C)(C)C the Potency was inconclusive: 89.1 µM [inhibitor, single point]. COc1ccccc1NC(=O)Nc1nnc(CC(=O)Nc2cccc(C)c2)s1 was tested, and the activity change, negative = inhibition was inconclusive: -36% [inhibitor]. In the case of COc1cc(S(=O)(=O)NCc2ccncc2)c(OC)cc1Br, the activity change, negative = inhibition is reported as inconclusive: -42% [inhibitor]. In the case of O=C1CCC(=O)N1c1ccc(S(=O)(=O)Nc2cccc([N+](=O)[O-])c2)cc1, the Potency is reported as inconclusive: 39.8 µM [inhibitor, single point]. In the case of COc1ccccc1NC(=O)CCC(=O)N1CC(C)Oc2ccc(C)cc21 (centres undefined), the Potency is reported as inconclusive: 100 µM [inhibitor, single point]. CCc1cccc(OCC(=O)Nc2ccc(C(=O)O)cc2NC(=O)COc2cccc(CC)c2)c1 was tested, and the Potency was inconclusive: 2.82 µM [inhibitor, partial curve, poor fit]. In the case of O=C(CCN1C(=O)/C(=C/C=C/c2ccccc2)SC1=S)Nc1ccccn1, the Potency is reported as “inactive”. With COc1cc(OC)c(C2CC(=O)N3CN(c4ccc(C)cc4)CSC3=C2C#N)cc1OC (centres undefined) the Potency was “inactive”. CCc1ccccc1NC(=O)Cn1c(=O)n(CCCCCC(=O)NCc2ccc(C)cc2)c(=O)c2sccc21 was tested, and the Potency was “inactive”. With Cc1nn(S(=O)(=O)N2CCCCC2)c(C)c1Br the Potency was inconclusive: 89.1 µM [inhibitor, single point]. CC1CCCC(NC(=O)CCS(=O)(=O)c2cc3c(cc2Cl)NC(=O)CO3)C1C (centres undefined) was tested, and the Potency was “inactive”. For COc1cc(/C=N/Nc2nncn2/N=C/c2ccc(O)c(OC)c2)ccc1O, the Potency was “inactive”. For CC(C)(CO)NC(=O)Nc1ccc(Cl)c(Cl)c1, the Potency was inconclusive: 89.1 µM [inhibitor, single point]. For CCc1ccc(NCc2cc3cc4c(cc3n(CC(=O)Nc3ccccc3OC)c2=O)OCCO4)cc1, the Potency was inconclusive: 3.16 µM [inhibitor, single point]. For CCC(=O)Nc1cc2c(cc1C(=O)c1ccccc1)OCCO2, the Potency was active: 79.4 µM. With CCc1ccc(S(=O)(=O)c2nnn3c2nc(N2CCOCC2)c2sccc23)cc1 the Potency was “inactive”. For CCOc1cc(/C=C2\SC(=S)N(Nc3ccccc3)C2=O)ccc1O, the Potency was active: 12.6 µM. In the case of COc1cc(NC(=O)C2CCN(S(=O)(=O)c3ccc4c(c3)CCCC(=O)N4)CC2)cc(OC)c1, the Potency is reported as “inactive”.
